PubChem BioAssay AID1259254 – NCATS – 2017
Aim: 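Gene knock-downs that lead to re-replication, shown by excess G2 DNA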 (primary screen). Cell system: human HCT116 colorectal cancer cells. Reagent: single siRNA against human genes. Duration: 3 days. Measurement: 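Nuclei stained with Hoechst and imaged; cell-cycle phase assigned by DNA content; G2 share scaled per plate, non-targeting siRNA 0%, GMNN siRNA 100%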. Scale: G2 robust z-score and G2 cells, % of GMNN control: higher = more G2 cells, more excess DNA replication. Active means: 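An siRNA counts as active if its G2 robust z-score lies at least 5 MADs above the screen median; here such calls match roughly 38% of GMNN control or more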.
In all, the deposit lists about 59,000 reagents; shown is a part drawn at random. About 1,550 of them (2.6%) were called active. 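G2 share is only a proxy for re-replication; each gene was hit by three separate siRNAs, and active genes were retested.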 The numbers tell different reagents against one gene apart. Not all columns of the deposit are shown. Not given: the amount of reagent.

Gene,reagent,G2 robust z-score,"G2 cells, % of GMNN control",activity call
KLHL30 (kelch like family member 30),1,-0.196,1.59,inactive
KLHL30 (kelch like family member 30),2,-1.05,-4.41,inactive
KLHL30 (kelch like family member 30),3,0.422,5.94,inactive
RHD (Rh blood group D antigen),1,0.256,4.77,inactive
RHD (Rh blood group D antigen),2,1.53,13.8,inactive
RHD (Rh blood group D antigen),3,0.259,4.79,inactive
PTPN14 (protein tyrosine phosphatase non-receptor type 14),1,1.33,12.3,inactive
PTPN14 (protein tyrosine phosphatase non-receptor type 14),2,-0.309,0.795,inactive
PTPN14 (protein tyrosine phosphatase non-receptor type 14),3,0.781,8.47,inactive
SERPINA12 (serpin family A member 12),1,0.821,8.74,inactive
SERPINA12 (serpin family A member 12),2,0.695,7.86,inactive
SERPINA12 (serpin family A member 12),3,-0.794,-2.62,inactive
LOC643962 (retired record),1,0.307,5.13,inactive
LOC643962 (retired record),2,-0.749,-2.3,inactive
LOC643962 (retired record),3,2.05,17.4,inactive
SIRPA (signal regulatory protein alpha),1,-0.405,0.116,inactive
SIRPA (signal regulatory protein alpha),2,0.37,5.57,inactive
SIRPA (signal regulatory protein alpha),3,-1.07,-4.56,inactive
YWHAE,1,1.12,10.9,inactive
YWHAE,2,0.836,8.85,inactive
YWHAE,3,-0.861,-3.09,inactive
YWHAE,4,5.12,39,active
YWHAE,5,-0.372,0.352,inactive
YWHAE,6,0.624,7.36,inactive
PABPC4L (poly(A) binding protein cytoplasmic 4 like),1,0.322,5.23,inactive
PABPC4L (poly(A) binding protein cytoplasmic 4 like),2,0.093,3.62,inactive
PABPC4L (poly(A) binding protein cytoplasmic 4 like),3,-0.831,-2.88,inactive
SLC5A5,1,1.59,14.2,inactive
SLC5A5,2,-0.562,-0.988,inactive
SLC5A5,3,-0.427,-0.0377,inactive
ETNK2 (ethanolamine kinase 2),1,0.0677,3.44,inactive
ETNK2 (ethanolamine kinase 2),2,1.18,11.3,inactive
ETNK2 (ethanolamine kinase 2),3,3.79,29.6,inactive
RNF26 (ring finger protein 26),1,-0.225,1.39,inactive
RNF26 (ring finger protein 26),2,-0.463,-0.292,inactive
RNF26 (ring finger protein 26),3,2.93,23.6,inactive
MGC70870 (C-terminal binding protein 2 pseudogene),1,0.0851,3.57,inactive
MGC70870 (C-terminal binding protein 2 pseudogene),2,0.00521,3,inactive
MGC70870 (C-terminal binding protein 2 pseudogene),3,1.8,15.6,inactive
TMEM165 (transmembrane protein 165),1,-0.222,1.4,inactive
TMEM165 (transmembrane protein 165),2,1.74,15.2,inactive
TMEM165 (transmembrane protein 165),3,2.58,21.1,inactive
LSP1P5 (LSP1 pseudogene 5),1,0.894,9.26,inactive
LSP1P5 (LSP1 pseudogene 5),2,-0.322,0.702,inactive
LSP1P5 (LSP1 pseudogene 5),3,-0.0169,2.85,inactive
ATP5F1E (ATP synthase F1 subunit epsilon),1,1.48,13.4,inactive
ATP5F1E (ATP synthase F1 subunit epsilon),2,0.0984,3.66,inactive
ATP5F1E (ATP synthase F1 subunit epsilon),3,-0.669,-1.74,inactive
"GIMAP5 (GTPase, IMAP family member 5)",1,-0.447,-0.177,inactive
"GIMAP5 (GTPase, IMAP family member 5)",2,0.183,4.25,inactive
"GIMAP5 (GTPase, IMAP family member 5)",3,-0.304,0.828,inactive
FLVCR2 (FLVCR choline and putative heme transporter 2),1,0.11,3.74,inactive
FLVCR2 (FLVCR choline and putative heme transporter 2),2,-0.616,-1.36,inactive
FLVCR2 (FLVCR choline and putative heme transporter 2),3,-0.715,-2.06,inactive
ILDR2 (immunoglobulin like domain containing receptor 2),1,1.38,12.7,inactive
ILDR2 (immunoglobulin like domain containing receptor 2),2,-0.378,0.305,inactive
ILDR2 (immunoglobulin like domain containing receptor 2),3,0.299,5.07,inactive
CFAP100 (cilia and flagella associated protein 100),1,-0.656,-1.65,inactive
CFAP100 (cilia and flagella associated protein 100),2,1.32,12.3,inactive
CFAP100 (cilia and flagella associated protein 100),3,0.287,4.99,inactive
"NAA16 (N-alpha-acetyltransferase 16, NatA auxiliary subunit)",1,-0.291,0.923,inactive
"NAA16 (N-alpha-acetyltransferase 16, NatA auxiliary subunit)",2,-0.484,-0.435,inactive
"NAA16 (N-alpha-acetyltransferase 16, NatA auxiliary subunit)",3,0.0447,3.28,inactive
PRXL2CP1 (PRXL2C pseudogene 1),1,-0.385,0.257,inactive
PRXL2CP1 (PRXL2C pseudogene 1),2,-0.535,-0.796,inactive
PRXL2CP1 (PRXL2C pseudogene 1),3,0.233,4.6,inactive
LOC155060 (AI894139 pseudogene),1,0.69,7.82,inactive
LOC155060 (AI894139 pseudogene),2,2.91,23.4,inactive
LOC155060 (AI894139 pseudogene),3,-0.633,-1.48,inactive

Part of the list above, set out differently:
{"Gene": "ETNK2 (ethanolamine kinase 2)", "reagent": 1, "G2 robust z-score": 0.0677, "G2 cells, % of GMNN control": 3.44, "activity call": "inactive"}
{"Gene": "ETNK2 (ethanolamine kinase 2)", "reagent": 2, "G2 robust z-score": 1.18, "G2 cells, % of GMNN control": 11.3, "activity call": "inactive"}
{"Gene": "ETNK2 (ethanolamine kinase 2)", "reagent": 3, "G2 robust z-score": 3.79, "G2 cells, % of GMNN control": 29.6, "activity call": "inactive"}
{"Gene": "RNF26 (ring finger protein 26)", "reagent": 1, "G2 robust z-score": -0.225, "G2 cells, % of GMNN control": 1.39, "activity call": "inactive"}
{"Gene": "RNF26 (ring finger protein 26)", "reagent": 2, "G2 robust z-score": -0.463, "G2 cells, % of GMNN control": -0.292, "activity call": "inactive"}
{"Gene": "RNF26 (ring finger protein 26)", "reagent": 3, "G2 robust z-score": 2.93, "G2 cells, % of GMNN control": 23.6, "activity call": "inactive"}
{"Gene": "MGC70870 (C-terminal binding protein 2 pseudogene)", "reagent": 1, "G2 robust z-score": 0.0851, "G2 cells, % of GMNN control": 3.57, "activity call": "inactive"}
{"Gene": "MGC70870 (C-terminal binding protein 2 pseudogene)", "reagent": 2, "G2 robust z-score": 0.00521, "G2 cells, % of GMNN control": 3, "activity call": "inactive"}
